The text below walks through data of publication PMC7277541, “Antimicrobial and Antifungal Activities of Terpene-Derived Palladium Complexes” (Antibiotics, 2020).

The test system of the experiment is S. aureus (MRSA) ATCC 43300. Nature of the experiment: Antibacterial MIC assay, S. aureus (MRSA). To be noted: Staphylococcus aureus, 18 h, read-out: Minimum inhibitory concentration (MIC) S. aureus ATCC 43300. The experiment is classed as cell-based. As to the method: Dry compounds were dissolved in dimethyl sulfoxide (DMSO), and serially diluted 2-fold to produce an 8-point dose response with DMSO/water and then added into microtiter plates with a final DMSO concentration of 0.5%, providing a concentration range of 0.25 to 32 μg/mL. Screening against bacteria and yeasts for antimicrobial activity and toxicity against mammalian cells was performed in duplicate (n = 2).
For the bacterial assays, each bacterial strain was cultured in Cation-Adjusted Mueller Hinton Broth (CAMHB; Bacto Laboratories 212322) at 37 °C overnight. Bacterial strains tested were methicillin resistant S. aureus (methicillin-resistant Staphylococcus aureus - MRSA) ATCC 43300, E. coli ATCC 25922, K. pneumoniae K6/ESBL ATCC 700603, P. aeruginosa ATCC 27853, A. baumannii ATCC 19606. A sample of each culture was then diluted 40-fold in fresh CAMHB and incubated at 37 °C for 1.5–3 h. The resultant mid-log phase cultures were diluted with CAMHB (CFU/mL measured by OD600), then added to each well of the compound-containing plates (384-well non-binding surface (NBS) plates; Corning CLS3640), giving a final cell density of 5 × 10^5 CFU/mL and a total volume of 50 μL. […] Inhibition of bacterial growth was determined by measuring absorbance at 600 nm (OD600), using media only as negative control and bacteria without inhibitors as positive control. […]

Values after ≈ are worked out from the molar mass of the structure shown.

With `CN[C@H](CC(C)C)C(=O)N[C@H]1C(=O)N[C@@H](CC(N)=O)C(=O)N[C@H]2C(=O)N[C@H]3C(=O)N[C@H](C(=O)N[C@H](C(=O)O)c4cc(O)cc(O)c4-c4cc3ccc4O)[C@H](O)c3ccc(c(Cl)c3)Oc3cc2cc(c3O[C@@H]2O[C@H](CO)[C@@H](O)[C@H](O)[C@H]2O[C@H]2C[C@](C)(N)[C@H](O)[C@H](C)O2)Oc2ccc(cc2Cl)[C@H]1O` [vancomycin, reference compound], the MIC came out at 1 µg/mL (≈ 0.69 µM).
